Measured values as given in PMC4967827.
No constants are given. Whether binding was seen depends on the method and setting. Binding seen in cells or lysates may run through a third protein. Some entries that bind do so weakly or less than the wild type. Where a sequence is shown, tags or fusion partners need not be part of it. Blank lines part the entries; values can stand above or below the binder they belong to.

Protein sequences, listed by entry. Tags and fused reporters are not part of them.
UniProt P0A9A6: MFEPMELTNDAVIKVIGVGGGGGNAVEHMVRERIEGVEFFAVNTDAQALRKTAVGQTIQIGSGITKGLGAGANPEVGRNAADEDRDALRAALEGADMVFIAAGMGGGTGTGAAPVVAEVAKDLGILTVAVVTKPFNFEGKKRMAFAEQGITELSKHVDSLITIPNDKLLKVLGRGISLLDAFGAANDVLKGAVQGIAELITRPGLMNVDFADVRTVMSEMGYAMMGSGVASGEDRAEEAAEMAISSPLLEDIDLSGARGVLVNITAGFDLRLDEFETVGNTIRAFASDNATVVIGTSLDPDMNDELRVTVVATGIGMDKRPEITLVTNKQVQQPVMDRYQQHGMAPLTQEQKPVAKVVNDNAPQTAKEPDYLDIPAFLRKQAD

Tests used:
[1] = target: T1, MBP-fused DicB-ΔN13 (E. coli) (UniProt P09557); test: pull-down; proteins expressed separately; supernatants mixed and incubated 1 h, amylose column, maltose elution, SEC; SDS–PAGE, Coomassie (MBP–DicB–MBP and MBP–DicB truncation derivatives with MinC)
T1 sequence: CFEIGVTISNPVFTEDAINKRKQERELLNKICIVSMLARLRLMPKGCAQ

[2] = target: T2, MBP-fused DicB-ΔN7 (E. coli) (UniProt P09557); test: as above
T2 sequence: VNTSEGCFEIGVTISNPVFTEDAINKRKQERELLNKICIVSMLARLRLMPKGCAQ

[3] = target: T3, MBP-fused DicB-ΔN26 (E. coli) (UniProt P09557); test: as above
T3 sequence: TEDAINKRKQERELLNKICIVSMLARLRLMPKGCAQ

[4] = target: T4, MBP-fused DicB-ΔN6 (E. coli) (UniProt P09557); test: as above
T4 sequence: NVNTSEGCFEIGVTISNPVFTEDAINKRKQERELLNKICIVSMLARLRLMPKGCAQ

FtsZ (E. coli) = FtsZ (E. coli) (UniProt P0A9A6); test: pull-down; MBP–DicB (no tag) and FtsZ; same procedures except that the supernatant was loaded onto a nickel column; control without FtsZ; SDS–PAGE, Coomassie

- binding [1]: binds
- binding [2]: binds
- binding [3]: binds
- binding [4]: binds
B1: MinC (protein, UniProt P18196 1-231)
chain: MSNTPIELKGSSFTLSVVHLHEAEPKVIHQALEDKIAQAPAFLKHAPVVLNVSALEDPVNWSAMHKAVSATGLRVIGVSGCKDAQLKAEIEKMGLPILTEGKEKAPRPAPTPQAPAQNTTPVTKTRLIDTPVRSGQRIYAPQCDLIVTSHVSAGAELIADGNIHVYGMMRGRALAGASGDRETQIFCTNLMAELVSIAGEYWLSDQIPAEFYGKAARLQLVENALTVQPLN

- binding (FtsZ (E. coli)): no binding
B2: MBP–DicB lacking C-terminal His-tag (protein, UniProt P09557 1-62)
chain: MKTLLPNVNTSEGCFEIGVTISNPVFTEDAINKRKQERELLNKICIVSMLARLRLMPKGCAQ
